# Laboratory results from patent US9181234B2, “Antibacterial compounds” (priority 2010, dated 2015).
# Protein sequences, listed by entry. Tags and fused reporters are not part of them. Lines headed by an entry give the natural chain unless they say otherwise; changes in a name come on top.
# UniProt P0A0K8: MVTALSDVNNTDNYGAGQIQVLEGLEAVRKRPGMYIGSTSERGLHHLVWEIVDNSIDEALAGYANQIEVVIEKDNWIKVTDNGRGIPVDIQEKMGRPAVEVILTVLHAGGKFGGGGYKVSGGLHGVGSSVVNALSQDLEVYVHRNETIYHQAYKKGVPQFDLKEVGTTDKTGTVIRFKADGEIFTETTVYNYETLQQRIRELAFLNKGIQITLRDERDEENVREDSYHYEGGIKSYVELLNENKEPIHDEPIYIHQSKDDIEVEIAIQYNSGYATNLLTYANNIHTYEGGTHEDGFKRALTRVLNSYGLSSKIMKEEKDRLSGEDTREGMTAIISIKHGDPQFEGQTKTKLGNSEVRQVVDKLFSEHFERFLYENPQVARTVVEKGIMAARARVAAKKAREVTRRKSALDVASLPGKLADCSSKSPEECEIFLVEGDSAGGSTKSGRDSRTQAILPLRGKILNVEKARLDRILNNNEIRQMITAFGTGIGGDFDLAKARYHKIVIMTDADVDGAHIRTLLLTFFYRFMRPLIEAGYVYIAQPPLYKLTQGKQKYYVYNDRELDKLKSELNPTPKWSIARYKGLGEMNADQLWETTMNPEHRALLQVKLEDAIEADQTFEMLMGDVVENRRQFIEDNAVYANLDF
# Like-named read-outs stand apart in the source and are kept apart here. Some of these results come from one statement about several compounds together. At least one structure is not confirmed: it was looked up by name or label, or the drawing left a doubt.
# Target: T1, Gyrase enzyme (A2B2 complex from Staphylococcus aureus) (UniProt P0A0K8)
# T1 construct: 2 mU/μl Gyrase enzyme (A2B2 complex from Staphylococcus aureus); Alternatively
# Experiment: Gyrase ATPase assay (S. aureus enzyme)
# Assay type: biochemical
# Description: On-Target Enzyme Assay: Determination of Gyrase ATPase Activity
# Gyrase converts ATP into ADP and inorganic phosphate. The released phosphate can be detected by the addition of malachite green solution and measured by monitoring the increase in absorbance at 600 nm. The ATPase assay is carried out in a buffer containing 2 mU/μl Gyrase enzyme (A2B2 complex from Staphylococcus aureus), 0.08 mg/ml double-stranded DNA, 8 mM HEPES.KOH pH 7.6, 100 mM K glutamate, 2 mM Mg acetate, 2 mM DTT, 0.01 mg/ml BSA, and 5% DMSO solution containing the inhibitor. Alternatively, the ATPase assay is carried out in a buffer containing 4.8 μg/mL Gyrase enzyme (A2B2 complex from Escherichia coli), 0.08 μg/mL ssDNA, 35 mM Tris pH 7.5, 24 mM KCl, 2 mM MgCl2, 6.5% Glycerol, 2 mM DTT, 1.8 mM Spermidine, 0.5 mg/mL BSA and 5% DMSO solution containing the inhibitor. The reaction is started by adding ATP to a final concentration of 1 mM and allowed to incubate at 30° C. for 60 minutes. The reaction is stopped by adding […] of malachite green solution (0.034% malachite green, 10 mM ammonium molybdate, 1 M HCl, 3.4% ethanol, 0.01% tween 20). Colour is allowed to develop for 5 minutes and the absorbance at 600 nm is measured spectrophotometrically. The IC50 values are determined from the absorbance readings using no compound and no enzyme controls.
# [1] = enzyme source (S. aureus or E. coli) not given; 1 mM ATP, 30° C., 60 minutes; read-out: Gyrase ATPase activity (IC50)
# [2] = read-out: Gyrase ATPase activity (IC50); enzyme source (S. aureus or E. coli) not given; 1 mM ATP, 30° C., 60 minutes
SMILES,IC50 [1],IC50 [2],also measured
CCCCC#Cc1cc(-c2cnc(N3CCC(C)(C(=O)O)CC3)nc2)cc2nc(NC(=O)NCC)sc12 [Compound 22],≤ 576 nM,–,–
CCNC(=O)Nc1nc2cc(-c3cnc(N4CCC(C)(C(=O)O)CC4)nc3)cc(-c3ncccc3F)c2s1 [Compound 18],≤ 560 nM,–,–
"CCNC(=O)Nc1nc2cc(-c3cnc(N4CCC(C)(C(=O)O)CC4)nc3)cc(C3CCCCC3)c2s1 [Compound 39, 1-{5-[7-Cyclohexyl-2-(3-ethyl-ureido)-benzothiazol-5-yl]-pyrimidin-2-yl}-4-methyl-piperidine-4-carboxylic acid]",–,≤ 574 nM,–
CCNC(=O)Nc1nc2cc(-c3cnc(N4CCC(C)(C(=O)O)CC4)nc3)cc(-c3ccnc(C#N)n3)c2s1 [Compound 44],≤ 552 nM,–,–
"CCNC(=O)Nc1nc2cc(-c3cnc(N4CCC(C)(C(=O)O)CC4)nc3)cc(O)c2s1 [Compound 26, 1-[5-[2-(ethylcarbamoylamino)-7-hydroxy-1,3-benzothiazol-5-yl]pyrimidin-2-yl]-4-methyl-piperidine-4-carboxylic acid]",–,≤ 657 nM,–
"CCNC(=O)Nc1nc2cc(-c3cnc(N4CCC(C)(C(=O)O)CC4)nc3)cc(C(=O)N(C)CC)c2s1 [Compound 91, 1-[5-[2-(ethylcarbamoylamino)-7-[ethyl(methyl)carbamoyl]-1,3-benzothiazol-5-yl]pyrimidin-2-yl]-4-methyl-piperidine-4-carboxylic acid]",≤ 571 nM,–,–
"CCNC(=O)Nc1nc2cc(-c3cnc(N4CCC(C)(C(=O)O)CC4)nc3)cc(C(=O)N3CCOCC3)c2s1 [Compound 159, 1-[5-[2-(ethylcarbamoylamino)-7-(morpholine-4-carbonyl)-1,3-benzothiazol-5-yl]pyrimidin-2-yl]-4-methyl-piperidine-4-carboxylic acid]",≤ 542 nM,–,–
CCNC(=O)Nc1nc2cc(-c3cnc(N4CCC(C)(C(=O)OCC)CC4)nc3)cc(C3CCN(C(C)=O)CC3)c2s1 [Compound 178],–,–,"Gyrase ATPase activity (IC50) (enzyme source (S. aureus or E. coli) not given; 1 mM ATP, 30° C., 60 minutes): ≤ 0.3 µg/mL"
"CCNC(=O)Nc1nc2cc(-c3cnc(N4CCC(C)(C(=O)O)CC4)nc3)cc(NC(=O)c3ncccn3)c2s1 [Compound 146, 1-[5-[2-(ethylcarbamoylamino)-7-(pyrimidine-2-carbonylamino)-1,3-benzothiazol-5-yl]pyrimidin-2-yl]-4-methyl-piperidine-4-carboxylic acid]",–,≤ 534 nM,–
